Results on six test systems are retold here after the supplement of paper PMC10331698.

± gives the standard deviation of the averaged measurements. Most entries show no effect beyond the scatter of the controls.

Holding throughout (assay): level (log10 ratio to DMSO vehicle control); higher = higher biomarker level / cell amount than vehicle control
Compound in assay [1]: O=C(O)C(F)(F)C(F)(F)C(F)(F)C(F)(F)C(F)(F)C(F)(F)C(F)(F)C(F)(F)C(F)(F)C(F)(F)C(F)(F)C(F)(F)C(F)(F)F [Perfluorotetradecanoic acid]
As to conditions: in DMSO. The protocol: (§1)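 BioMAP Diversity Plus panel of 12 human primary cell co-culture systems (3C, 4H, LPS, SAg, BT, BF4T, BE3C, CASM3C, HDF3CGF, KF3CT, MyoF, Mphg). Compounds were added 1 h before stimulation and left for 24 h (MyoF 48 h; BT 72 h for soluble read-outs or 6 d for IgG). Biomarkers were read by ELISA, cytotoxicity by SRB, PBMC viability and proliferation by Alamar Blue. Each well value was divided by the mean of 8 DMSO control wells on the same plate and log10 transformed; duplicate blinded samples were tested at 4 concentrations.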

Compound in assay [2]: O=S(=O)(O)C(F)(F)C(F)(F)C(F)(F)C(F)(F)C(F)(F)C(F)(F)F [Perfluorohexanesulfonic acid]
The note with it: 2200 nM; in DMSO. The protocol:
as §1

Compound in assay [3]: FC(F)(I)C(F)(F)C(F)(F)C(F)(F)C(F)(F)C(F)(F)I [1,6-Diiodoperfluorohexane]
The note with it: 2200 nM; in DMSO. The method, then: as §1

Compound in assay [4]: O=S(=O)(O)CCC(F)(F)C(F)(F)C(F)(F)C(F)(F)F [4:2 Fluorotelomer sulfonic acid]
The note with it: 2200 nM; in DMSO. The method, then:
as §1

Compound in assay [5]: OCCCC(F)(F)C(F)(F)C(F)(F)C(F)(F)C(F)(F)C(F)(F)C(F)(F)F [7:3 Fluorotelomer alcohol]
The note with it: 2200 nM; in DMSO. The protocol:
as §1

Compound in assay [6]: C=CC(=O)OCC(F)(F)C(F)(F)C(F)(F)COC(=O)C=C [1H,1H,5H,5H-Perfluoro-1,5-pentanediol diacrylate]
As to conditions: 2200 nM; in DMSO. The method, then:
as §1

Compound in assay [7]: C=CC(=O)OCCC(F)(F)C(F)(F)C(F)(F)C(F)(F)F [2-(Perfluorobutyl)ethyl acrylate]
The note with it: 2200 nM; in DMSO. The protocol: as §1

Compound in a further assay: FC(F)(F)C(F)(F)C(F)(F)C(F)(F)C(F)(F)C(F)(F)I [Perfluoro-1-iodohexane]
As to conditions: in DMSO. The protocol:
as §1

Compound in assay [8]: O=C(O)C=C(C(F)(F)F)C(F)(F)F [3,3-Bis(trifluoromethyl)-2-propenoic acid]
As to conditions: in DMSO. The protocol:
as §1

Compound in assay [9]: O=C(Cl)C(F)(F)C(F)(F)C(F)(F)C(=O)Cl [Hexafluoroglutaryl chloride]
The note with it: 2200 nM; in DMSO. The protocol: as §1

Compound in assay [10]: C=CC(=O)OCCC(F)(F)C(F)(F)C(F)(F)C(F)(F)C(F)(F)C(F)(F)C(F)(F)C(F)(F)F [8:2 Fluorotelomer acrylate]
As to conditions: 2200 nM; in DMSO. The method, then:
as §1

Compound in a further assay: OCC(F)(F)C(F)(F)C(F)(F)CO [Hexafluoroamylene glycol]
The note with it: 2200 nM; in DMSO. The protocol:
as §1

Compound in assay [11]: FC(F)(F)C(F)(C(F)(F)F)C(F)(F)C(F)(F)CC1CO1 [3-(Perfluoro-3-methylbutyl)-1,2-propenoxide]
The note with it: in DMSO. The protocol: as §1

For MyoF:bFGF, the “level (log10)” value in [1] (740 nM) was 0.016 ± 0.014; in [1] (2200 nM), 0.015 ± 0.0028; in assay [2], 0.0105 ± 0.0092; in assay [3], -0.042 ± 0.021; in [4] it was 0.011 ± 0.023; in assay [5] it was -0.0005 ± 0.013. Moreover, the “level (log10)” value was 0.008 ± 0.0085 in assay [6]; -0.0025 ± 0.011 in [7]; -0.013 ± 0.0028 with Perfluoro-1-iodohexane (2200 nM); -0.0085 ± 0.0064 with Perfluoro-1-iodohexane (6700 nM); -0.002 ± 0.0042 in the assay with Perfluoro-1-iodohexane (20000 nM); 0.0235 ± 0.036 in the assay with Perfluoro-1-iodohexane (60000 nM). Moreover, the “level (log10)” value in [8] (2200 nM) was 0.005 ± 0.0042; in assay [8] (6700 nM), 0.0125 ± 0.0064; in [8] (20000 nM) it was 0.0075 ± 0.019; in assay [8] (60000 nM), 0.0325 ± 0.019; in assay [9] it was 0.012 ± 0.0042; in [10], -0.0145 ± 0.0092. The “level (log10)” value with Hexafluoroamylene glycol is 0.007 ± 0.011; in assay [11] (740 nM) it was -0.0055 ± 0.03; in assay [11] (2200 nM), -0.003 ± 0.0042.
In the case of CASM3C:CCL2/MCP-1, the “level (log10)” value in [1] (740 nM) is -0.094 ± 0.2; in assay [1] (2200 nM) it was -0.086 ± 0.12; in assay [2], -0.017 ± 0.038; in assay [3], 0.017 ± 0.024; in assay [4] it was 0.0155 ± 0.036; in assay [5], -0.0065 ± 0.013. Moreover, the “level (log10)” value in assay [6] was 0.0115 ± 0.03; in assay [7], 0.009 ± 0.023; with Perfluoro-1-iodohexane (2200 nM), 0.011 ± 0.014; with Perfluoro-1-iodohexane (6700 nM), 0.006 ± 0.0099; with Perfluoro-1-iodohexane (20000 nM) it was -0.0085 ± 0.019; with Perfluoro-1-iodohexane (60000 nM) it was 0.0015 ± 0.049. Also, the “level (log10)” value is -0.0145 ± 0.023 in [8] (2200 nM); -0.03 ± 0.0028 in assay [8] (6700 nM); -0.0425 ± 0.00071 in assay [8] (20000 nM); -0.0465 ± 0.022 in [8] (60000 nM); 0.0025 ± 0.028 in assay [9]; -0.006 ± 0.018 in [10]. The results for the “level (log10)” value (with Hexafluoroamylene glycol; in assay [11] (740 nM); in assay [11] (2200 nM)) were 0.013 ± 0.025, 0.002 and 0.001 ± 0.0071, respectively.
With BE3C:CXCL9/MIG, the “level (log10)” value in assay [1] (740 nM) was -0.0005 ± 0.0092; in assay [1] (2200 nM), 0.001 ± 0.0071; in [2], 0.0085 ± 0.015; in [3], -0.0035 ± 0.012; in [4], -0.0025 ± 0.00071; in assay [5], 0.0005 ± 0.0021. For the same test system, the “level (log10)” value was -0.01 ± 0.016 in assay [6]; -0.006 ± 0.013 in assay [7]; -0.001 ± 0.0057 with Perfluoro-1-iodohexane (2200 nM); 0.0085 ± 0.0035 with Perfluoro-1-iodohexane (6700 nM); -0.002 ± 0.0071 with Perfluoro-1-iodohexane (20000 nM); -0.0035 ± 0.018 with Perfluoro-1-iodohexane (60000 nM). Besides, the “level (log10)” value in [8] (2200 nM) is 0.0035 ± 0.012; in assay [8] (6700 nM), -0.007 ± 0.014; in assay [8] (20000 nM), -0.007 ± 0.0057; in [8] (60000 nM), 0.005 ± 0.023; in assay [9], 0.0135 ± 0.011; in assay [10], 0.0025 ± 0.0092. Further, the “level (log10)” value was -0.0055 ± 0.00071 with Hexafluoroamylene glycol, -0.0055 ± 0.0064 in [11] (740 nM) and 0 ± 0.014 in assay [11] (2200 nM).
On to BE3C:HLA-DR, for which the “level (log10)” value in assay [1] (740 nM) was 0.014 ± 0.0099; in [1] (2200 nM), -0.0095 ± 0.021; in [2], -0.0005 ± 0.033; in assay [3], 0.024 ± 0.018; in [4], -0.017 ± 0.027; in assay [5], -0.0035 ± 0.032. The “level (log10)” value in assay [6] is 0.006 ± 0.018; in assay [7], -0.004 ± 0.024; in the assay with Perfluoro-1-iodohexane (2200 nM), 0 ± 0.0099; with Perfluoro-1-iodohexane (6700 nM) it was -0.003 ± 0.0028; in the assay with Perfluoro-1-iodohexane (20000 nM) it was 0.003 ± 0.0057; with Perfluoro-1-iodohexane (60000 nM) it was -0.009 ± 0.0028. Further, the “level (log10)” value was -0.004 ± 0.031 in [8] (2200 nM); -0.0175 ± 0.0064 in [8] (6700 nM); -0.0245 ± 0.011 in assay [8] (20000 nM); -0.0355 ± 0.016 in assay [8] (60000 nM); -0.001 ± 0.0028 in assay [9]; 0.017 ± 0.023 in assay [10]. In addition, the “level (log10)” value with Hexafluoroamylene glycol is -0.027 ± 0.021; in assay [11] (740 nM), -0.01 ± 0.023; in assay [11] (2200 nM) it was -0.007 ± 0.0071.
In the case of 4H:VEGFR2, the “level (log10)” value in assay [1] (740 nM) is 0.038 ± 0.037; in assay [1] (2200 nM), 0.0095 ± 0.064; in assay [2], 0.001 ± 0.014; in assay [3], 0.0445 ± 0.064; in assay [4], -0.0555 ± 0.018; in assay [5], 0.018 ± 0.031. The “level (log10)” value in assay [6] was found to be 0.0045 ± 0.11; in [7] it was 0.022 ± 0.014; with Perfluoro-1-iodohexane (2200 nM) it was 0.0185 ± 0.019; in the assay with Perfluoro-1-iodohexane (6700 nM), 0.0075 ± 0.0092; in the assay with Perfluoro-1-iodohexane (20000 nM), 0.006 ± 0.02; with Perfluoro-1-iodohexane (60000 nM), 0.004 ± 0.023. In addition, the “level (log10)” value in assay [8] (2200 nM) is 0.003 ± 0.033; in [8] (6700 nM) it was -0.02; in assay [8] (20000 nM), -0.019 ± 0.0099; in [8] (60000 nM) it was -0.04 ± 0.0057; in assay [9] it was -0.011 ± 0.081; in [10], 0.0125 ± 0.005. Besides, the “level (log10)” value in the assay with Hexafluoroamylene glycol was 0.0145 ± 0.036; in assay [11] (740 nM) it was 0.0185 ± 0.03; in assay [11] (2200 nM) it was -0.006 ± 0.014.
MyoF:Collagen III: the “level (log10)” value in assay [1] (740 nM) was -0.0055 ± 0.0021; in [1] (2200 nM) it was -0.0005 ± 0.016; in [2] it was -0.0245 ± 0.013; in assay [3] it was -0.0495 ± 0.039; in assay [4] it was -0.029 ± 0.0057; in [5], -0.0015 ± 0.0021. Also, the “level (log10)” value in [6] was -0.017 ± 0.025; in assay [7], -0.008 ± 0.03; with Perfluoro-1-iodohexane (2200 nM), 0.0005 ± 0.011; in the assay with Perfluoro-1-iodohexane (6700 nM) it was -0.0225 ± 0.0064; with Perfluoro-1-iodohexane (20000 nM) it was -0.039 ± 0.0057; with Perfluoro-1-iodohexane (60000 nM), -0.132 ± 0.036. Further, the “level (log10)” value in assay [8] (2200 nM) is -0.019 ± 0.018; in assay [8] (6700 nM), -0.021 ± 0.0014; in assay [8] (20000 nM), -0.0335 ± 0.00071; in [8] (60000 nM) it was -0.064 ± 0.011; in [9], -0.015; in [10] it was -0.001 ± 0.0099. For the same test system, the “level (log10)” value with Hexafluoroamylene glycol is -0.0215 ± 0.026; in assay [11] (740 nM), -0.0185 ± 0.015; in [11] (2200 nM) it was -0.001 ± 0.025.
